# Results are given in words; binding and its absence hold for the method and conditions named. Some results given as binding are weak or reduced against the parent protein; the word gives no strength.
# Tests used:
# [1] = target: mutant (γ^S3C) α3β3γ complex of BF1 (Bacillus subtilis) (UniProt P37808+P37809+P37810); assay: cross-linking; disulfide cross-linking without ATP: α3β3γ^S3C and ε^133C mixed 1:10, excess ε removed by ultrafiltration (100-kDa cutoff), 50 µM CuCl2, 1 h, 25 °C, 50 mM Tris-H2SO4 pH 7.5, 50 mM K2SO4; non-reducing SDS-PAGE; both purified
# [2] = target: β subunit of BF1 with His6-tag at the N-terminus (Bacillus subtilis) (UniProt P37809); assay: co-purification (HisTrap by His6-β, then Superdex 200 gel filtration); subunits co-expressed in E. coli; buffer A 20 mM Tris-H2SO4 pH 7.5, 300 mM K2SO4, 30 mM imidazole; 25 °C
# [3] = target: α3β3γ complex of F1-ATPase from Bacillus subtilis (BF1), WT (Bacillus subtilis) (UniProt P37808+P37809+P37810); assay: SEC; gel-filtration HPLC (Superdex 200 10/300GL), also in the presence of ATP and/or LDAO; data not shown; both purified
binding [2],Substance,further results
–,"mutant BF1 ε subunit (133C, a Cys introduced at the C-terminus) (from UniProt P37812 1-132)",binding [1]: binds
binds,"γ subunit of BF1, WT (from UniProt P37810 1-287)",–
binds,γ^S3C subunit of BF1 (from UniProt P37810 1-287),–
binds,α subunit of BF1 (from UniProt P37808 1-502),–
–,"ε subunit of BF1 (Bacillus subtilis F1-ATPase), WT (from UniProt P37812 1-132)",binding [3]: binds

# — publication PMC3742539, “ε Subunit of Bacillus subtilis F1-ATPase Relieves MgADP Inhibition” (PLoS ONE, 2013)
